Data as given in the supplement of paper PMC10849652.
The list shows a part of the results.

Chains of the proteins cited; added tags and fusions are not shown. Lines headed by an entry give the natural chain unless they say otherwise; changes in a name come on top.
UniProt Q9NW13: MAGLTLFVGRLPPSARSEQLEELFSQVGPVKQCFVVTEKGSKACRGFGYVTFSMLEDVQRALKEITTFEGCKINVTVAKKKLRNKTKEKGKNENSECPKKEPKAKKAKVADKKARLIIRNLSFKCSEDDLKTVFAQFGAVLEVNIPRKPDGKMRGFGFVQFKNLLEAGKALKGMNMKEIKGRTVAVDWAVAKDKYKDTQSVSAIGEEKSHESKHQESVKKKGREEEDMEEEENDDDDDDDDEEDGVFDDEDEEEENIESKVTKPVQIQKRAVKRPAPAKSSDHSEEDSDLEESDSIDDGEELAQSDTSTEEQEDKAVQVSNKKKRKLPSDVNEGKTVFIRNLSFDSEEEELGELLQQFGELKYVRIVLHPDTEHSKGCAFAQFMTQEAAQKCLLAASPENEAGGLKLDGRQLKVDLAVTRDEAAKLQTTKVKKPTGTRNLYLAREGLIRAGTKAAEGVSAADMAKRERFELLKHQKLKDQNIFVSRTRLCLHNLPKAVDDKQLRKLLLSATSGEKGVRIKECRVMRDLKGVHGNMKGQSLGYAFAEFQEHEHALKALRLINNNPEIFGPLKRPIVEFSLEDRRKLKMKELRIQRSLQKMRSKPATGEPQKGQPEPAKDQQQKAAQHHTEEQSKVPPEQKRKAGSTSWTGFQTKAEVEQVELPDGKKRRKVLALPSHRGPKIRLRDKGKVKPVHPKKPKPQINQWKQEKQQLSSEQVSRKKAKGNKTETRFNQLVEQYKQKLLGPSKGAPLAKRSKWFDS
UniProt O15258: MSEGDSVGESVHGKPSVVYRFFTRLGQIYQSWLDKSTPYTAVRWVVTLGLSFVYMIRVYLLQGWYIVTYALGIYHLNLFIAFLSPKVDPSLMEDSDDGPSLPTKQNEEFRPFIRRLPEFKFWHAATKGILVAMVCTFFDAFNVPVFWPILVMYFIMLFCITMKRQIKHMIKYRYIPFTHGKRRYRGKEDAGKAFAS
UniProt P98175: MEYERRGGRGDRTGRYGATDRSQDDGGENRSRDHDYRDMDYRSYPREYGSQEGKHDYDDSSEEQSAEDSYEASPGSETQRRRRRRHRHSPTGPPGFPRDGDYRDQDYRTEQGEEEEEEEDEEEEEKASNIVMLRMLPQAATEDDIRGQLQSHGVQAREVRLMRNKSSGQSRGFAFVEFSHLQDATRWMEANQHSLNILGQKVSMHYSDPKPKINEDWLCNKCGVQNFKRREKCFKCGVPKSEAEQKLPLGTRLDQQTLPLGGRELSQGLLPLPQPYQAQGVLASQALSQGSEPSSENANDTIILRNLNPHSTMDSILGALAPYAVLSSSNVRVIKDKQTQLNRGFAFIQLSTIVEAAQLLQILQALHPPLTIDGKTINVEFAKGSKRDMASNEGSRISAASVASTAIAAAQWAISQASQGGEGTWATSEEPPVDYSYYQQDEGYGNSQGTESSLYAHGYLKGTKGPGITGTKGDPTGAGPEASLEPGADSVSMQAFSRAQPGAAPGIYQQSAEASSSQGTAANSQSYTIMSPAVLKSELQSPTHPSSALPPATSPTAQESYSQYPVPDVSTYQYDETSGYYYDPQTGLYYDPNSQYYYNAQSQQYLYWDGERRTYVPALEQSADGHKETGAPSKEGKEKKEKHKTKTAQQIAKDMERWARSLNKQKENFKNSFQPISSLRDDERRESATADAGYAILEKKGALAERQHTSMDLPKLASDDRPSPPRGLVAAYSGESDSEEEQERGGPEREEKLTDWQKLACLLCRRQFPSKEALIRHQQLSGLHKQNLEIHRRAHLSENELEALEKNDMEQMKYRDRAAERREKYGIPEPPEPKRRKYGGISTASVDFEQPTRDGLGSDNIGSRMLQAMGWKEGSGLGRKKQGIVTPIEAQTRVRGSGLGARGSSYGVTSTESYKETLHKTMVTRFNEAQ
UniProt Q9UKL0, whole entry, looked up: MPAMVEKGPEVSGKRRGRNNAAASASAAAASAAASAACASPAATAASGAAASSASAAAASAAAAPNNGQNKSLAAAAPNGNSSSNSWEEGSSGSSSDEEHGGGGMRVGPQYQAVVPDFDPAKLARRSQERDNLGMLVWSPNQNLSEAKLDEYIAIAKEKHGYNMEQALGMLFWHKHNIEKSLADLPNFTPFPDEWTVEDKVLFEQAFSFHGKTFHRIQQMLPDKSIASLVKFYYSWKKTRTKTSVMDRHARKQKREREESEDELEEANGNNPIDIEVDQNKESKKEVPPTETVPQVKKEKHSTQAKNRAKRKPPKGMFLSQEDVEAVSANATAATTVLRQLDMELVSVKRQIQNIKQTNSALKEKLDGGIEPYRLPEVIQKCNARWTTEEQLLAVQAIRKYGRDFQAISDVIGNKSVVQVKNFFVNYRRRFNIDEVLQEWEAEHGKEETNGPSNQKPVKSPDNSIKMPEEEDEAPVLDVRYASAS
UniProt Q9P2N5: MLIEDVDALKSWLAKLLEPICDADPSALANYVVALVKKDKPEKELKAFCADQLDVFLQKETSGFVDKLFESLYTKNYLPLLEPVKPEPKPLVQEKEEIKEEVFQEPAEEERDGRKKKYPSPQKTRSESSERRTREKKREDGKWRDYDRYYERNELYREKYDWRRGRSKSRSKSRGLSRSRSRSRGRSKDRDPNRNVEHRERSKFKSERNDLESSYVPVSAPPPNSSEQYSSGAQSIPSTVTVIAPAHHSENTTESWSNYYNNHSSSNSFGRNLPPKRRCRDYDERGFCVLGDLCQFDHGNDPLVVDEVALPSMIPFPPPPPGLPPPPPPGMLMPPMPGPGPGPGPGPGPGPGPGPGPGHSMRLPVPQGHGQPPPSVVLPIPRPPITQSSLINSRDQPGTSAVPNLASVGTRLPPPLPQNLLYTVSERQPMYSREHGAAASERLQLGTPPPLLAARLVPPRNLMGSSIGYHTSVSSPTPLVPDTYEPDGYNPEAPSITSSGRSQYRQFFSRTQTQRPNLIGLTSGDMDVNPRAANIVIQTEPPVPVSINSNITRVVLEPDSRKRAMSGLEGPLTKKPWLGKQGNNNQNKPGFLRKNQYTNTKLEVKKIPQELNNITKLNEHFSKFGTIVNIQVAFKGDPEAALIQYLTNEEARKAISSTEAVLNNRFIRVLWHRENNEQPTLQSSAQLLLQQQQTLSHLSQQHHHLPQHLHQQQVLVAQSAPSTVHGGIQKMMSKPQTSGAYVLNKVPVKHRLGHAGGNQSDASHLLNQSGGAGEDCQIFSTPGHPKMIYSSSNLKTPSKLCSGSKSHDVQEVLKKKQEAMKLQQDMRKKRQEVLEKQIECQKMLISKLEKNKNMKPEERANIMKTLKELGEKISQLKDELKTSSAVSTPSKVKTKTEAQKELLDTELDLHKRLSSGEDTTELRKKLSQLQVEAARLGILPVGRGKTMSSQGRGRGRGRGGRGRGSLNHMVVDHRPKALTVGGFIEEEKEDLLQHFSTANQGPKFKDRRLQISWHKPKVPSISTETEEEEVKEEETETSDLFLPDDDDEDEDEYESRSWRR
UniProt Q5T8P6: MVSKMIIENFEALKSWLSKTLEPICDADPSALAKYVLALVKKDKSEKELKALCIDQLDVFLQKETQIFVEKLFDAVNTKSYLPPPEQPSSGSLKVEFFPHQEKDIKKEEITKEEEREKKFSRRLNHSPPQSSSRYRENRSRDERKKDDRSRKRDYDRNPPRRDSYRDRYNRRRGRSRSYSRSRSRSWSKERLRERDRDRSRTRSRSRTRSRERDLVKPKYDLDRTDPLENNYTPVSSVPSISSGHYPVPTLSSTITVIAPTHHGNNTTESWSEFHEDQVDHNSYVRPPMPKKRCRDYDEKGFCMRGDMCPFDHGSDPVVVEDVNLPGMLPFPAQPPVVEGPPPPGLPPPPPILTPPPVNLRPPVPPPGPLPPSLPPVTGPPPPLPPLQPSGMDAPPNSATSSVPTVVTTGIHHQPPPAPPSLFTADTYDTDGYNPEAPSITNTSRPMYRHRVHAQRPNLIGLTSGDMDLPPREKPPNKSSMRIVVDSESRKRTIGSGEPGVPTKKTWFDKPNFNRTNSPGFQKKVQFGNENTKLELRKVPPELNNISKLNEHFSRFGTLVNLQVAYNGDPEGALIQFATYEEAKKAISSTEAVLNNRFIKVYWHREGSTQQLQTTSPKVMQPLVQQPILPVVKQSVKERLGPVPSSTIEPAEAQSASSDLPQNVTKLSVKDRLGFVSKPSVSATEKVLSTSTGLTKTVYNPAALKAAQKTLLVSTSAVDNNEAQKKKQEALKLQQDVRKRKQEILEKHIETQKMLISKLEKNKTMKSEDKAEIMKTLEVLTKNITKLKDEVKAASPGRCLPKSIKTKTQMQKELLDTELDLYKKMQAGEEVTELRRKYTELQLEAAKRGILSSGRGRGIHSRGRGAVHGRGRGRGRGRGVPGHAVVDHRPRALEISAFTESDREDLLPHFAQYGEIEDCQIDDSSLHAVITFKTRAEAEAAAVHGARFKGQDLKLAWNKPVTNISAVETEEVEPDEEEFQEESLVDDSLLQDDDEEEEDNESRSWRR
UniProt Q14644: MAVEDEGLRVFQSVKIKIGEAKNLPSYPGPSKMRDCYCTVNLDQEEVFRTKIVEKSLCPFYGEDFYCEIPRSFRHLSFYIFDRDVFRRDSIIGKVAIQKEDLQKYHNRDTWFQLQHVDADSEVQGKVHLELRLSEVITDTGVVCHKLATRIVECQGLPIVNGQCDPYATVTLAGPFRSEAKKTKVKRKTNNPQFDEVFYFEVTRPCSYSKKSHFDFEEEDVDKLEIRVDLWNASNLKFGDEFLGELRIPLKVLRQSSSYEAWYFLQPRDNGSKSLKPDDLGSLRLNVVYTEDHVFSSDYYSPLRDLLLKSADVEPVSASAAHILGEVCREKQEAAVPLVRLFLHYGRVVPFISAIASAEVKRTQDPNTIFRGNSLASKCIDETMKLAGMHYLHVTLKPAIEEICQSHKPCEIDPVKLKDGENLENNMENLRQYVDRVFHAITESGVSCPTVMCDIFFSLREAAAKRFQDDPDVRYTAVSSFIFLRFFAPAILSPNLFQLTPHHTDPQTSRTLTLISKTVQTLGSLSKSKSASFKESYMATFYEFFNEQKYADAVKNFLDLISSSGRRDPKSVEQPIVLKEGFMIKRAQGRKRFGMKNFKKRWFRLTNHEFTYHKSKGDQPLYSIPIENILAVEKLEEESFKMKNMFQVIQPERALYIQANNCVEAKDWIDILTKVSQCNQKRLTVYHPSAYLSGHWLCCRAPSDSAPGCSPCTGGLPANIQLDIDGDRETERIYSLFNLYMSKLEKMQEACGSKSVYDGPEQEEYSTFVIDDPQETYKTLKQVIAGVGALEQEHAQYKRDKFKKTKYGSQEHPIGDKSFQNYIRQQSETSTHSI
UniProt Q96D15: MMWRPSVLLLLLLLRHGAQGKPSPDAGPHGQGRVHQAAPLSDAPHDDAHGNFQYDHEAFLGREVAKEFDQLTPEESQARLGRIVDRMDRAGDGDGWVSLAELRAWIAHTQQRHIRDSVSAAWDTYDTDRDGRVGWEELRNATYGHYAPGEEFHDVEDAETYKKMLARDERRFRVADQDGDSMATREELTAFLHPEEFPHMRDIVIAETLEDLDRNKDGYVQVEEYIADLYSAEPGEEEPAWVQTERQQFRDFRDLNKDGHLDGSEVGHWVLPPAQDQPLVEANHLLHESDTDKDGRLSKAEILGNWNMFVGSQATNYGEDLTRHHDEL
UniProt P98179: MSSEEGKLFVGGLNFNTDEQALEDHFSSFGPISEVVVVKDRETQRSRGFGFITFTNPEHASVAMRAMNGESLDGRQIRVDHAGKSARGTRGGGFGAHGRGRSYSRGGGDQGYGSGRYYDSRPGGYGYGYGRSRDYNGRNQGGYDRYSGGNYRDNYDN
UniProt Q86VR2, whole entry, looked up: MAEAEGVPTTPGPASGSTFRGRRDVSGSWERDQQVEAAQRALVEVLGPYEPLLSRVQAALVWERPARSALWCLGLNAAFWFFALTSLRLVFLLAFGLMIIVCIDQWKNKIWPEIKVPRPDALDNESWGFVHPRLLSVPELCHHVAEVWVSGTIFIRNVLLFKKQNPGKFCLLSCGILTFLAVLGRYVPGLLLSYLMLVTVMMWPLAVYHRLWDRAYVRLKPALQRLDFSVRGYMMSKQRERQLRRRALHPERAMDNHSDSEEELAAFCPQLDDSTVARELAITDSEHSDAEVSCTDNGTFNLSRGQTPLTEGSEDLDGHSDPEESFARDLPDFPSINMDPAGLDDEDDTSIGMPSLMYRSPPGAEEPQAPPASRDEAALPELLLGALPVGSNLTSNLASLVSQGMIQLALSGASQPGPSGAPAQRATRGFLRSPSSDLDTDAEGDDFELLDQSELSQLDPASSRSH

Experiments:
Assay in all cases: log2 fold change, soluble protein after heating vs DMSO (PISA); higher = thermal stabilisation; K562 lysate, 10 uM; active = over 0.2 and 3.5 SD of the protein, either way, in both replicates (recomputed)
alvocidib = compound: CN1CC[C@H](c2c(O)cc(O)c3c(=O)cc(-c4ccccc4Cl)oc23)[C@H](O)C1 [alvocidib]
Method in brief: (§1)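 A 30 min treatment with 10 μM compound was applied to crude K562 extract at 1 mg/mL protein in PBS pH 7.4 with 1 mM MgCl2. Heating for 3 min spanned 48°C-58°C, after which aliquots were pooled, adjusted to 0.5% NP-40 at 4°C and spun at 21,000xg for 90 min. TMTpro 16plex LC-MS/MS of the supernatant, with channel sums equalised, gave values recorded as log-two fold change in thermal stability against solvent controls, from duplicates.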

Tubastatin A = compound: CN1CCc2c(c3ccccc3n2Cc2ccc(C(=O)NO)cc2)C1 [Tubastatin A]
Method in brief: as §1

[1] = compound: CNC(=O)C1=CC=CC=C1NC2=NC(=NC=C2Cl)NC3=C(C=C(C=C3)N4CCOCC4)OC
Method in brief: as §1

defactinib = compound: CNC(=O)c1ccc(Nc2ncc(C(F)(F)F)c(NCc3nccnc3N(C)S(C)(=O)=O)n2)cc1 [defactinib]
Method in brief: as §1

[2] = compound: CNc1nc(-c2ccc3c(N)n[nH]c3c2)cc(N2C[C@@H](C(=O)NC3CCCCC3)CC[C@H]2C)n1
Method in brief: as §1

encorafenib = compound: COC(=O)N[C@@H](C)CNc1nccc(-c2cn(C(C)C)nc2-c2cc(Cl)cc(NS(C)(=O)=O)c2F)n1 [encorafenib]
Method in brief: as §1

[3] = compound: COC(=O)[C@H](CCSC)NC(=O)C1=C(C=C(C=C1)NC[C@H](CS)N)C2=CC=CC=C2
Method in brief: as §1

alisertib = compound: COc1cc(Nc2ncc3c(n2)-c2ccc(Cl)cc2C(c2c(F)cccc2OC)=NC3)ccc1C(=O)O [alisertib]
Method in brief: as §1

[4] = compound: COc1cc2nc(-c3cc(F)ccc3O)nc(N[C@@H]3CNC[C@H]3C(C)(C)O)c2cc1OC
Method in brief: as §1

gefitinib = compound: COc1cc2ncnc(Nc3ccc(F)c(Cl)c3)c2cc1OCCCN1CCOCC1 [gefitinib]
Method in brief: as §1

lapatinib = compound: CS(=O)(=O)CCNCc1ccc(-c2ccc3ncnc(Nc4ccc(OCc5cccc(F)c5)c(Cl)c4)c3c2)o1 [lapatinib]
Method in brief: as §1

pictilisib = compound: CS(=O)(=O)N1CCN(Cc2cc3nc(-c4cccc5[nH]ncc45)nc(N4CCOCC4)c3s2)CC1 [pictilisib]
Method in brief: as §1

crizotinib = compound: C[C@@H](Oc1cc(-c2cnn(C3CCNCC3)c2)cnc1N)c1c(Cl)ccc(F)c1Cl [crizotinib]
Method in brief: as §1

[5] = compound: C[C@H](C1=CC=C(C=C1)C(=O)NC2=C3C=CNC3=NC=C2)N
Method in brief: as §1

duvelisib = compound: C[C@H](Nc1ncnc2nc[nH]c12)c1cc2cccc(Cl)c2c(=O)n1-c1ccccc1 [duvelisib]
Method in brief: as §1

gandotinib = compound: Cc1cc(Nc2cc(CN3CCOCC3)c3nc(C)c(Cc4ccc(Cl)cc4F)n3n2)n[nH]1 [gandotinib]
Method in brief: as §1

tozasertib = compound: Cc1cc(Nc2cc(N3CCN(C)CC3)nc(Sc3ccc(NC(=O)C4CC4)cc3)n2)n[nH]1 [tozasertib]
Method in brief: as §1

doramapimod = compound: Cc1ccc(-n2nc(C(C)(C)C)cc2NC(=O)Nc2ccc(OCCN3CCOCC3)c3ccccc23)cc1 [doramapimod]
Method in brief: as §1

bafetinib = compound: Cc1ccc(NC(=O)c2ccc(CN3CC[C@H](N(C)C)C3)c(C(F)(F)F)c2)cc1Nc1nccc(-c2cncnc2)n1 [bafetinib]
Method in brief: as §1

[6] = compound: Cc1cccc(CC(=O)N2CCc3c2ccc(-c2cn(C)c4ncnc(N)c24)c3F)n1
Method in brief: as §1

Measured: log2 fold change

RBM28 (UniProt Q9NW13)
inactive: alvocidib 0.015 | Tubastatin A -0.101 | [1] 0.006 | defactinib -0.018 | [2] 0.022 | encorafenib 0.018 | [3] 0.01 | alisertib 0.009 | [4] -0.007 | gefitinib -0.003 | lapatinib -0.012 | pictilisib -0.018 | crizotinib -0.05 | [5] -0.005 | duvelisib -0.022 | gandotinib -0.089 | tozasertib -0.023 | doramapimod 0.09 | bafetinib -0.04 | [6] 0.024

RER1 (UniProt O15258)
inactive: alvocidib -0.091 | Tubastatin A 0.006 | [1] 0.01 | defactinib 0.042 | [2] 0.044 | encorafenib 0.047 | [3] -0.013 | alisertib -0.004 | [4] 0.004 | gefitinib -0.018 | lapatinib 0.001 | pictilisib -0.012 | crizotinib -0.006 | [5] -0.128 | duvelisib 0.004 | gandotinib 0.029 | tozasertib 0.026 | doramapimod -0.044 | bafetinib -0.007 | [6] 0.023

RBM10 isoform 5 (UniProt P98175)
inactive: alvocidib -0.019 | Tubastatin A -0.023 | [1] 0.01 | defactinib -0.032 | [2] 0.138 | encorafenib 0.04 | [3] -0.038 | alisertib -0.008 | [4] 0.017 | gefitinib 0.047 | lapatinib 0.008 | pictilisib 0.032 | crizotinib 0.024 | [5] 0.002 | duvelisib -0.023 | gandotinib 0.065 | tozasertib -0.004 | doramapimod 0.084 | bafetinib -0.077 | [6] 0.01

RCSD1 (UniProt Q6JBY9)
inactive: alvocidib -0.007 | Tubastatin A 0.049 | [1] -0.023 | defactinib 0.01 | [2] 0.063 | encorafenib -0.009 | [3] -0.016 | alisertib 0.001 | [4] 0.006 | gefitinib -0.01 | lapatinib 0.013 | pictilisib 0.003 | crizotinib -0.005 | [5] -0.018 | duvelisib 0.003 | gandotinib 0.034 | tozasertib -0.019 | doramapimod 0.016 | bafetinib -0.033 | [6] 0.004

RCOR1 (UniProt Q9UKL0)
inactive: alvocidib -0.031 | Tubastatin A -0.021 | [1] -0.017 | defactinib -0.039 | [2] 0.014 | encorafenib 0.01 | [3] 0.115 | alisertib 0.023 | [4] 0.027 | gefitinib -0.011 | lapatinib -0.056 | pictilisib -0.069 | crizotinib 0.048 | [5] -0.083 | duvelisib -0.004 | gandotinib -0.009 | tozasertib 0.019 | doramapimod -0.061 | bafetinib -0.056 | [6] 0.041

RBM12 (UniProt Q9NTZ6)
inactive: alvocidib -0.023 | Tubastatin A 0.021 | [1] -0.023 | defactinib -0.002 | [2] 0.001 | encorafenib 0.011 | [3] -0.055 | alisertib 0.01 | [4] 0.006 | gefitinib -0.025 | lapatinib 0.008 | pictilisib -0.02 | crizotinib 0.012 | [5] -0.014 | duvelisib 0.01 | gandotinib -0.027 | tozasertib -0.024 | doramapimod 0.003 | bafetinib 0.016 | [6] 0.006

RBM27 (UniProt Q9P2N5)
inactive: alvocidib -0.132 | Tubastatin A -0.037 | [1] -0.026 | defactinib -0.017 | [2] -0.033 | encorafenib 0.037 | [3] -0.13 | alisertib 0.019 | [4] -0.042 | gefitinib -0.041 | lapatinib 0.043 | pictilisib -0.021 | crizotinib 0.095 | [5] -0.049 | duvelisib -0.024 | gandotinib -0.181 | tozasertib 0.04 | doramapimod 0.021 | bafetinib -0.051 | [6] 0.042

RELN (UniProt P78509)
inactive: alvocidib 0.026 | Tubastatin A -0.051 | [1] -0.025 | defactinib 0.055 | [2] -0.016 | encorafenib -0.009 | [3] -0.092 | alisertib -0.014 | [4] 0.141 | gefitinib 0.089 | lapatinib 0.047 | pictilisib 0.047 | crizotinib -0.022 | [5] -0.104 | duvelisib 0.002 | gandotinib 0.057 | tozasertib -0.002 | doramapimod -0.044 | bafetinib -0.042 | [6] 0.08

RBM26 isoform 2 (UniProt Q5T8P6)
inactive: alvocidib -0.004 | Tubastatin A -0.051 | [1] -0.027 | defactinib -0.021 | [2] -0.017 | encorafenib 0.031 | [3] -0.074 | alisertib -0.006 | [4] -0.017 | gefitinib 0.005 | lapatinib 0.013 | pictilisib -0.004 | crizotinib -0.011 | [5] 0.063 | duvelisib -0.044 | gandotinib -0.135 | tozasertib 0.007 | doramapimod 0.056 | bafetinib -0.038 | [6] -0.035

RASA3 (UniProt Q14644)
inactive: alvocidib -0.089 | Tubastatin A -0.246 | [1] 0 | defactinib 0.052 | [2] -0.118 | encorafenib -0.005 | [3] 0.082 | alisertib -0.006 | [4] 0.032 | gefitinib -0.043 | lapatinib 0.08 | pictilisib -0.044 | crizotinib -0.061 | [5] -0.049 | duvelisib 0.103 | gandotinib -0.026 | tozasertib -0.017 | doramapimod -0.005 | bafetinib -0.198 | [6] 0.005

RCN3 (UniProt Q96D15)
inactive: alvocidib -0.025 | Tubastatin A 0.002 | [1] 0.005 | defactinib 0.026 | [2] 0.063 | encorafenib -0.002 | [3] 0.046 | alisertib -0.059 | [4] -0.015 | gefitinib 0.052 | lapatinib -0.03 | pictilisib -0.026 | crizotinib 0.004 | [5] -0.018 | duvelisib -0.092 | gandotinib 0.087 | tozasertib 0.043 | doramapimod -0.073 | bafetinib 0.013 | [6] -0.022

RAPGEF6 isoform 4 (UniProt Q8TEU7)
inactive: alvocidib -0.056 | Tubastatin A -0.048 | [1] 0.006 | defactinib 0.031 | [2] 0.001 | encorafenib 0.009 | [3] 0.059 | alisertib 0.017 | [4] 0.001 | gefitinib -0.024 | lapatinib 0.027 | pictilisib -0.058 | crizotinib -0.003 | [5] -0.032 | duvelisib 0.019 | gandotinib -0.009 | tozasertib 0.035 | doramapimod 0.021 | bafetinib -0.046 | [6] 0.038

RB1 (UniProt P06400)
inactive: alvocidib 0 | Tubastatin A 0.017 | [1] -0.017 | defactinib 0.007 | [2] -0.027 | encorafenib 0.026 | [3] 0.019 | alisertib 0.01 | [4] 0.012 | gefitinib 0.007 | lapatinib -0.01 | pictilisib -0.004 | crizotinib 0.005 | [5] -0.057 | duvelisib 0.011 | gandotinib -0.019 | tozasertib 0.011 | doramapimod 0.026 | bafetinib -0.027 | [6] 0.049

RBM3 (UniProt P98179)
inactive: alvocidib 0.035 | Tubastatin A -0.036 | [1] 0.118 | defactinib 0.038 | [2] 0.035 | encorafenib 0 | [3] -0.014 | alisertib 0.105 | [4] -0.008 | gefitinib 0.023 | lapatinib -0.104 | pictilisib -0.026 | crizotinib 0.186 | [5] 0.029 | duvelisib 0.081 | gandotinib 0.016 | tozasertib 0.033 | doramapimod 0 | bafetinib -0.026 | [6] -0.113

RETREG3 (UniProt Q86VR2)
inactive: alvocidib 0 | Tubastatin A -0.05 | [1] -0.01 | defactinib -0.031 | [2] 0.002 | encorafenib 0.024 | [3] -0.12 | alisertib -0.006 | [4] -0.069 | gefitinib -0.025 | lapatinib -0.098 | pictilisib -0.059 | crizotinib -0.183 | [5] 0.026 | duvelisib 0.065 | gandotinib -0.11 | tozasertib 0.026 | doramapimod 0.014 | bafetinib -0.089 | [6] 0.013

RBMX (UniProt P38159)
inactive: alvocidib -0.003 | Tubastatin A -0.03 | [1] -0.042 | defactinib 0.023 | [2] -0.022 | encorafenib 0.021 | [3] -0.068 | alisertib 0.002 | [4] 0.013 | gefitinib 0.023 | lapatinib 0.002 | pictilisib 0.012 | crizotinib 0.022 | [5] 0.011 | duvelisib 0.033 | gandotinib -0.003 | tozasertib 0.013 | doramapimod 0.008 | bafetinib 0.068 | [6] 0.022
